Reference: the supplement of paper PMC5407854, “Inhibitor of ppGalNAc-T3-mediated O-glycosylation blocks cancer cell invasiveness and lowers FGF23 levels” (eLife, 2017)
The other results are listed elsewhere or left out. Small differences around the control level are noise.

Experiments:
ppGalNAc-T3 sensor = assay: T3 sensor activation Q score (MG/GFP ratio z-score vs DMSO controls) (SD units); higher = more sensor activation (inhibition of ppGalNAc-T3 glycosylation); conditions: HEK293 sensor cells; 10 µM; 6 h
Experimental: (§1)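 Cells were treated with compound at 10 uM for 6 h, then MG/GFP ratio was read by flow cytometry (10,000 cells per well, duplicate wells). Q = (R - R_neg)/SD_neg relative to DMSO vehicle controls; the signal rises when the glycosyltransferase is inhibited.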

ppGalNAc-T2 sensor = assay: T2 sensor activation Q score (MG/GFP ratio z-score vs DMSO controls) (SD units); higher = more sensor activation (inhibition of ppGalNAc-T2 glycosylation); conditions: HEK293 sensor cells; 10 µM; 6 h
Experimental: as §1

| SMILES | T3 sensor activation Q score (ppGalNAc-T3 sensor) | T2 sensor activation Q score (ppGalNAc-T2 sensor) |
| --- | --- | --- |
| CC(=O)Nc1c(Cl)c(Cl)c(NC(C)=O)c2n[nH]nc12 | -1.17 | -1.48 |
| COc1ccccc1CNC(=O)c1ccccc1I | 0.56 | 0.35 |
| O=C(CCN1C(=O)c2ccccc2C1=O)N1CCCCCC1 | 1.92 | 0.875 |
| NNc1nc(-c2ccccc2)cc(-c2ccc(F)cc2)n1 | 2.35 | -0.34 |
| Cc1ccc(S(=O)(=O)N2CCCCC2)cc1 | 1.35 | -0.325 |
| CCN(CCN(C)C)Cc1ccc(C(C)C)cc1 | 0.33 | -0.505 |
| Cc1cc(C)cc(NCC(=O)Nc2c(C)cccc2C)c1 | -0.83 | -1.77 |
| CCN(CCN(C)C)Cc1ccccc1F | 1.82 | -0.1 |
| COc1ccc(CN2CCc3ccccc3C2)c(OC)c1 | 0.465 | 1.06 |
| COc1ccccc1C(=O)Nc1ccc(-c2nc3cc(Cl)ccc3o2)cc1 | -1.48 | -1.04 |
| CCC1CCCCN1S(=O)(=O)c1ccc(C)c(C)c1 (stereo not drawn) | -0.905 | -0.185 |
| CCN(CC)C(=O)C1CCCN(Cc2ccc(F)c(F)c2)C1 (stereo not drawn) | 0.3 | 0.27 |
| O=C1C2C3C=CC(C3)C2C(=O)N1c1nccs1 (stereo not drawn) | 0.38 | -0.245 |
| CCCCOc1ccc(CC(=O)O)cc1 | -0.155 | -1.07 |
| COc1ccc(C2=NCCc3cc(OC)c(OC)cc32)cc1 | 0.1 | 0.8 |
| COc1ccc(-c2cnn(-c3ccccc3)c2N)cc1OC | 0.7 | 1.36 |
| COc1cccc(NC2=C(N3CCCC3)C(=O)c3ccccc3C2=O)c1 | -0.135 | -0.835 |
| Cc1ccc2[nH]c3c(c2c1)CCCC3NCc1ccc(Cl)cc1 (stereo not drawn) | -0.01 | 0.43 |
| O=C(O)C1CCCCC1C(=O)Nc1ccc(Cl)cc1 (stereo not drawn) | -0.53 | 0.185 |

Two records drawn at random from the list so far:

| SMILES | T3 sensor activation Q score (ppGalNAc-T3 sensor) | T2 sensor activation Q score (ppGalNAc-T2 sensor) |
| --- | --- | --- |
| Cc1cc(C)cc(NCC(=O)Nc2c(C)cccc2C)c1 | -0.83 | -1.77 |
| CCN(CC)C(=O)C1CCCN(Cc2ccc(F)c(F)c2)C1 (stereo not drawn) | 0.3 | 0.27 |
